Results are given in words; binding and its absence hold for the method and conditions named. In cells and extracts the contact can be indirect. Some results given as binding are weak or reduced against the parent protein; the word gives no strength.
Target: T1, CYLD (human (endogenous in THP-1)) (UniProt Q9NQC7)
T1 sequence: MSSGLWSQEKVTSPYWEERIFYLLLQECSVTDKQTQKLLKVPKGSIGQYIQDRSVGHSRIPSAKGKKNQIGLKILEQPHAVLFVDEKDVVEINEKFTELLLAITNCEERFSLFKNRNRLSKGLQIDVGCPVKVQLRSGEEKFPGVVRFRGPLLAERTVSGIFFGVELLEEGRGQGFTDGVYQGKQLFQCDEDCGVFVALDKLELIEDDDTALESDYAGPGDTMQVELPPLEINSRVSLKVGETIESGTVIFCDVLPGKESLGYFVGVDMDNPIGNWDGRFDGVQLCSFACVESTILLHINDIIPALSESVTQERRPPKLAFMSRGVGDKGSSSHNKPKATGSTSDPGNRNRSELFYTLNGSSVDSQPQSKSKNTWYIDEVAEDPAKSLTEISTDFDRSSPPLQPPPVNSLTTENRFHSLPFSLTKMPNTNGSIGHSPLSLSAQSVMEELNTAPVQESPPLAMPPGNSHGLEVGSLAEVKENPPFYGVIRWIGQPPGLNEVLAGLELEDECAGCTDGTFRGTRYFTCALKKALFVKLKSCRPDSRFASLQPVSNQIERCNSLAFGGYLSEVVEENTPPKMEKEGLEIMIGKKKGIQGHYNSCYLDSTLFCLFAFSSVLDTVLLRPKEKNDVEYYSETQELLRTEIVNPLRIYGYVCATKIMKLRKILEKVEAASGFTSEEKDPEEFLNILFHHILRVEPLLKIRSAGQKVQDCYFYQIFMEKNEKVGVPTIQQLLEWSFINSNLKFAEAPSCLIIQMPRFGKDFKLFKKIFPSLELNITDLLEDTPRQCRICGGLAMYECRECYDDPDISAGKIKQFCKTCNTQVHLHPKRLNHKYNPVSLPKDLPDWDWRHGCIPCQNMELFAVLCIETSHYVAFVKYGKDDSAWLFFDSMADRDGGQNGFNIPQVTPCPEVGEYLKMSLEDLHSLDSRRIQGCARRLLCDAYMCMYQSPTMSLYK
Experiment: co-IP

Sequences of proteins named here, by UniProt entry; tags and fusion partners are left off.
UniProt Q9Y6K9: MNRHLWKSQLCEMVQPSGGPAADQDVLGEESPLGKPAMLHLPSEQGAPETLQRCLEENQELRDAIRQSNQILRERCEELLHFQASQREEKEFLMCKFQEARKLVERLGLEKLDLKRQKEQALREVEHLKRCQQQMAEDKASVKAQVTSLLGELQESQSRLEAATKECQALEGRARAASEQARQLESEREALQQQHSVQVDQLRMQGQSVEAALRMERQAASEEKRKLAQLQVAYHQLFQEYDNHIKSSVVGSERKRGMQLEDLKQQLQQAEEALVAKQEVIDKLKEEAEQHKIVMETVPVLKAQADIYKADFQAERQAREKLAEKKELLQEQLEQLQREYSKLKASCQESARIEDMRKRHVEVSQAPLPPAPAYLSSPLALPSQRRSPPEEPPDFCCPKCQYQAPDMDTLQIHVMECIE
UniProt P42224: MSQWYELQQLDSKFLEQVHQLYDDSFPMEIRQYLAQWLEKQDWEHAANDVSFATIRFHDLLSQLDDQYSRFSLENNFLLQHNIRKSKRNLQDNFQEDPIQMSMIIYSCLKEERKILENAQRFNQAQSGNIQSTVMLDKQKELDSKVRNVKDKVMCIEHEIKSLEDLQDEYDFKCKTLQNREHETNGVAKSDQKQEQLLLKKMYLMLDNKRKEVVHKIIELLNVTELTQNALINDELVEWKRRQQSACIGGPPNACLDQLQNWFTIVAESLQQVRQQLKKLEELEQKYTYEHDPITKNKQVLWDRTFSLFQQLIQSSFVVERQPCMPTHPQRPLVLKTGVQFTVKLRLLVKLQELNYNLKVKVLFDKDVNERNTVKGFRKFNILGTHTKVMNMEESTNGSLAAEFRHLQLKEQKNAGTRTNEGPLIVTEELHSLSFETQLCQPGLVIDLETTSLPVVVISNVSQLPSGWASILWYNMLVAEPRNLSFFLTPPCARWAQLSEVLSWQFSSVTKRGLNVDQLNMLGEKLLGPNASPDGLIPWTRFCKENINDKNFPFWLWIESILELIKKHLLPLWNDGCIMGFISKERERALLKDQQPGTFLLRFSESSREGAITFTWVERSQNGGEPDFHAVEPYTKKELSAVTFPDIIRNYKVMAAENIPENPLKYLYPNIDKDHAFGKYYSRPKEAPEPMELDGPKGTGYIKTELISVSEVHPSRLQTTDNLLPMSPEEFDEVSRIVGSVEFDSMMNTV

Substance	binding
IKKγ/NEMO (from UniProt Q9Y6K9 1-419)	binds
STAT1 (from UniProt P42224 1-750)	binds

From paper doi:10.1101/2024.07.25.605106
